The record followed here is patent US20080119428A1.

Chains of the proteins cited; added tags and fusions are not shown.
UniProt P07814: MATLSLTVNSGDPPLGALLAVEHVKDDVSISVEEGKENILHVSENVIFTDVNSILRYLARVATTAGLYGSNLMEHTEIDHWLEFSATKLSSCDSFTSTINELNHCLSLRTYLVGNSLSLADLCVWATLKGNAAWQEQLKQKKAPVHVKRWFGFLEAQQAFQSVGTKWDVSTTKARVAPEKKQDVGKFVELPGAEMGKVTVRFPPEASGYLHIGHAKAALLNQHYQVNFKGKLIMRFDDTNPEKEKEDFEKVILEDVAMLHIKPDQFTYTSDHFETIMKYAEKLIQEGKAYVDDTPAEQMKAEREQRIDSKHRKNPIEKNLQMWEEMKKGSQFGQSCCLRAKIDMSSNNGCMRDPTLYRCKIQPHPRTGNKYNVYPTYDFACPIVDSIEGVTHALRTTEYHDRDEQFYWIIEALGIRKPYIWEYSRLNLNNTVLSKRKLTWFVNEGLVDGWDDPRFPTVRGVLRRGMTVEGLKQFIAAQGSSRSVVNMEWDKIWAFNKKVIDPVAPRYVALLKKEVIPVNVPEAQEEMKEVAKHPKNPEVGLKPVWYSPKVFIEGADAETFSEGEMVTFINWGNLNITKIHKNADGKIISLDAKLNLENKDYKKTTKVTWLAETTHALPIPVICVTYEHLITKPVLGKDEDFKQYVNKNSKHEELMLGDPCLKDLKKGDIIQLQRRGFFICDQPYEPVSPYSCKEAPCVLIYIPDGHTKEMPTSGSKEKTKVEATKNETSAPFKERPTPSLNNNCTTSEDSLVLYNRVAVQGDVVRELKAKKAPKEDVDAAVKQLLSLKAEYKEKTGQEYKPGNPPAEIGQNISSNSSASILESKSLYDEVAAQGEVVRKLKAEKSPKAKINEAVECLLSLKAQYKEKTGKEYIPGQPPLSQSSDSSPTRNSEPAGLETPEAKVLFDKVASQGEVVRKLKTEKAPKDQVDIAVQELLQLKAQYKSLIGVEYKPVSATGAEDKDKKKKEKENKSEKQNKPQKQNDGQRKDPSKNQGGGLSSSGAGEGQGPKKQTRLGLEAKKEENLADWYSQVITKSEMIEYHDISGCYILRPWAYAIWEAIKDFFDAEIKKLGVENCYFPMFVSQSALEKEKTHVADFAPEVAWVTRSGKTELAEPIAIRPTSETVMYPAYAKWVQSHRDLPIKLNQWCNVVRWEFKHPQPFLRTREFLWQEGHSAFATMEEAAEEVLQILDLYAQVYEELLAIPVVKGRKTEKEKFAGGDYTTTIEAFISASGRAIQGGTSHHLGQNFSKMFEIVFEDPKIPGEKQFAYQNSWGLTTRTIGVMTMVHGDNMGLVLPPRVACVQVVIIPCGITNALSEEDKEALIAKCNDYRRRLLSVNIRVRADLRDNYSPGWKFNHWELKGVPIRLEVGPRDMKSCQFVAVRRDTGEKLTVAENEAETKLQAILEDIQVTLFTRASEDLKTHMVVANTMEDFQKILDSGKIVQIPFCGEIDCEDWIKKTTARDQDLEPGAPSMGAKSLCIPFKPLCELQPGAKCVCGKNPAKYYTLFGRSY

The assay concerns the target FLAG-tagged EPRS (UniProt P07814). The experiment in a line: reciprocal co-immunoprecipitation and western blot, both proteins transfected into LC319 cells. Background: A western blot detects proteins with antibodies after separation by electrophoresis.

Results are given in words; binding and its absence hold for the method and conditions named. Binding seen in cells or lysates may run through a third protein. Some binding calls cover weakened binding; strength is not graded here. Sequences can lack the tags named with a protein.

B1: myc-tagged-IMS-E21 (URLC8) (enzyme)
chain: MILNSLSLCYHNKLILAPMVRVGTLPMRLLALDYGADIVYCEELIDLKMIQCKRVVNEVLSTVDFVAPDDRVVFRTCEREQNRVVFQMGTSDAERALAVARLVENDVAGIDVNMGCPKQYSTKGGMGAALLSDPDKIEKILSTLVKGTRRPVTCKIRILPSLEDTLSLVKRIERTGIAAIAVHGRKREERPQHPVSCEVIKAIADTLSIPVIANGGSHDHIQQYSDIEDFRQATAASSVMVARAAMWNPSIFLKEGLRPLEEVMQKYIRYAVQYDNHYTNTKYCLCQMLREQLESPQGRLLHAAQSSREICEAFGLGAFYEETTQELDAQQARLSAKTSEQTGEPAEDTSGVIKMAVKFDRRAYPAQITPKMCLLEWCRREKLAQPVYETVQRPLDRLFSSIVTVAEQKYQSTLWDKSKKLAEQAAAIVCLRSQGLPEGRLGEESPSLHKRKREAPDQDPGGPRAQELAQPGDLCKKPFVALGSGEESPLEGWLDEESILKQEHHHHHH
B1: the binding result is recorded as “binds”.
